Results are given in words; binding and its absence hold for the method and conditions named. Some results given as binding are weak or reduced against the parent protein; the word gives no strength.
Key:
[1] = target: tau in brain cortex of Alzheimer's disease patients (human) (UniProt P10636); experiment: immunohistochemistry on AD brain cortex sections
[2] = target: tau in brain cortex of Alzheimer's disease patients (human) (UniProt P10636); experiment: immunohistochemistry, stain of AD tissue, 1 ug/mL
[3] = target: tau in brain cortex of Alzheimer's disease patients (human) (UniProt P10636); experiment: double immunofluorescent labeling on AD brain cortex sections
[4] = target: tau in brain cortex of Alzheimer's disease patients (human) (UniProt P10636); experiment: immunoprecipitation from AD frontal cortex fractions, blot with polyclonal tau antibody
M31A = experiment: Western blot of lysate (alanine scan), stained with 16B5
T39A = experiment: as above
D34A = experiment: as above
G42A = experiment: as above
H32A = experiment: as above
A41L = experiment: as above
Q35A = experiment: as above
D38A = experiment: as above
E36A = experiment: as above
D40A = experiment: as above
T30A = experiment: as above
[5] = target: tau in brain cortex of Alzheimer's disease patients (human) (UniProt P10636); experiment: Immunoprecipitation from AD frontal cortex fractions (high-salt soluble; sarkosyl insoluble) with protein G beads, blot with polyclonal tau antibody
[6] = target: purified tau (immunogen and ELISA antigen of Example 1) (human) (UniProt P10636); experiment: capture ELISA
[7] = target: Δ37-46 deletion mutant of tau (rTau) (human) (UniProt P10636); experiment: Western blot of bacterial lysates, 16B5 at 0.2 µg/mL

Amino acid sequences for entries named in this document (tags omitted). A change or cut given only in a name is not applied to a line headed by its entry. Chains listed by the source or under a name are the forms on record and can include a tag or linker.
UniProt P10636: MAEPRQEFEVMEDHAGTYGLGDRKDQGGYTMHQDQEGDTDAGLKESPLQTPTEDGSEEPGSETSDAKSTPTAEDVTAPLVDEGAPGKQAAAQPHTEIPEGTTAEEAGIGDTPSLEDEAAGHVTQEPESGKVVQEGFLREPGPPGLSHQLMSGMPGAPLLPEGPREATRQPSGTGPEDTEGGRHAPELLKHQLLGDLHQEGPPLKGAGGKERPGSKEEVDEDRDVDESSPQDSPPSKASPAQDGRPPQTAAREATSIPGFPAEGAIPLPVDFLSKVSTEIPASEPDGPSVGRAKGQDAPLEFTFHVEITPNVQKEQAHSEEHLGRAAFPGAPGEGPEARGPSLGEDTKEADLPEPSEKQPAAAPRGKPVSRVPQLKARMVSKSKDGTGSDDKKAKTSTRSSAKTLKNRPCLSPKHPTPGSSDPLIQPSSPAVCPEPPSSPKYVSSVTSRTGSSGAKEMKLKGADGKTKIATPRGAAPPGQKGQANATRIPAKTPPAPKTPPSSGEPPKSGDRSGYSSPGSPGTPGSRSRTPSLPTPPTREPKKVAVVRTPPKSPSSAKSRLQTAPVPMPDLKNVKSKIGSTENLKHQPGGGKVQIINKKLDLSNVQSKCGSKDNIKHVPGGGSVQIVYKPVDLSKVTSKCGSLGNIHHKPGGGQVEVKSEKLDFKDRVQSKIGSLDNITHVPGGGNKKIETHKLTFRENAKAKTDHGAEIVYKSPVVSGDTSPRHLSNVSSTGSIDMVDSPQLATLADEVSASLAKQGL
tau in brain cortex of Alzheimer's disease patients (P10636, form named): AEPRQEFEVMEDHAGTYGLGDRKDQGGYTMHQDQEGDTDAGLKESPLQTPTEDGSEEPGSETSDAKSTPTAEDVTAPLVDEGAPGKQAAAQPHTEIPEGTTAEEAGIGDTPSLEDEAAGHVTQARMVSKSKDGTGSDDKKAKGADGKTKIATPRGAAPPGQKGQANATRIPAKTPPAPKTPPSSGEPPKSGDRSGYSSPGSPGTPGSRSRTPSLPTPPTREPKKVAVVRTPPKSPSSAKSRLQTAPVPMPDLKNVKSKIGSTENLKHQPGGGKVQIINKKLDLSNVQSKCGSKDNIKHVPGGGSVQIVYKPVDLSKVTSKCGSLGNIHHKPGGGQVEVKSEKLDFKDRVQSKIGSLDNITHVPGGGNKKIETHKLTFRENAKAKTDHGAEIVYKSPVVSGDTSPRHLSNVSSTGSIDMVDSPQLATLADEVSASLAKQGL

Measured: binding

B1: humanized 16B5 antibody, version H1L2 (antibody, V domains shown)
VH: QVQLVQSGSELKKPGASVKVSCKASGYTFTYHGMDWVRQAPGQGLEWMGWINTYSGVPTYADDFKGRFVFSLDTSVSTAYLQISSLKAEDTAVYFCARRRDFTMDFWGQGTTVTVSS
VL: NIVLTQSPDSLAVSLGERATINCKSSQSLLNSRTRKNYLAWFQQKPGQSPKLLIYWASTRESGVPDRFSGSGSGTDFTLTISSLQAEDVAVYYCKQSYTLRTFGGGTKVEIKR
binds: [1] | [2] | [3] | [4]

B2: humanized 16B5 antibody, version H1L3 (antibody, V domains shown)
VH: QVQLVQSGSELKKPGASVKVSCKASGYTFTYHGMDWVRQAPGQGLEWMGWINTYSGVPTYADDFKGRFVFSLDTSVSTAYLQISSLKAEDTAVYFCARRRDFTMDFWGQGTTVTVSS
VL: DIVLTQSPDSLAVSLGERATINCKSSQSLLNSRTRKNYLAWFQQKPGQSPKLLIYWASTRESGVPDRFSGSGSGTDFTLTISSLQAEDVAVYYCKQSYTLRTFGGGTKVEIKR
binds: [4]

B3: murine monoclonal anti-tau antibody 16B5 (antibody, V domains shown)
VH: QIQLVQSGPELKKPGETVKISCKASGYPFTYHGMDWVKQAPWGGLEWMGWINTYSGVPTYADDFKGRFAFSLETSVGTAYLQINNLKNEDTATYFCARRRDFTMDFWGQGTSVTVSS
VL: NIVLSQSPSSLAVSPGEKVTMSCKSSQSLLNSRTRKNYLAWFQQKPGQSPKLLIYWASTRESGVPDRFTGSGSGTDFTLTISSVQAEDLAVYYCKQSYTLRTFGGGTNLEIKR
notes: Mouse monoclonal antibody; the isotype control used alongside it is IgG1; also called 16B5 monoclonal antibody; pan antibody 16B5
not listed: [3] | [4]
binds: all other assays above
